Experimental data published in paper PMC3464593.

T1: GFP-AtRanBPM (Arabidopsis homologue of RanBPM, At1g35470, N-terminal GFP fusion) (Arabidopsis thaliana) (UniProt F4HYD7)
T1 sequence: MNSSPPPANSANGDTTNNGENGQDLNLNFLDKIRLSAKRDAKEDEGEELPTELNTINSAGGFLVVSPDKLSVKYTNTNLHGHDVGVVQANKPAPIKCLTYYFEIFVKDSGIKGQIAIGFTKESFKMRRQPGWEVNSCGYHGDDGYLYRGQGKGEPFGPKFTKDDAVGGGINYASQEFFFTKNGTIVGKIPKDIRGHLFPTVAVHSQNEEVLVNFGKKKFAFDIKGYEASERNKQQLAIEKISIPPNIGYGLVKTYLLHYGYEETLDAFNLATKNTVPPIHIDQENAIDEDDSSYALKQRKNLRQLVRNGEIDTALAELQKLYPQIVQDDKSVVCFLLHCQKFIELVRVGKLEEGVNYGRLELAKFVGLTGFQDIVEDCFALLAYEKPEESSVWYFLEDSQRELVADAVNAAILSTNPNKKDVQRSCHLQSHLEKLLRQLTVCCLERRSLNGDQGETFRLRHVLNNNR


target: T1, GFP-AtRanBPM (Arabidopsis homologue of RanBPM, At1g35470, N-terminal GFP fusion) (Arabidopsis thaliana); assay: affinity purification with mass spectrometry; GFP-AtRanBPM immunopurified on GFP-Trap_A beads from S20 extracts (~4 mg protein/mL) of Arabidopsis cultured cells, used directly or solubilized by 1% NP-40 for 1 h at 4 °C; silver-stained SDS-PAGE bands analysed by MALDI-MS, or eluates by …; GFP immunopurification from wild type Ler culture as negative control

| Molecule | binding |
| --- | --- |
| LisH/CRA/RING-U-box domain-containing protein (At4g37880) (protein, UniProt Q9T075 1-388) MELKSIKDAFDRVATKQKLSYSKTNEIVHMLSQEIDKALSILEETPSSDTMLLDHRSILADVKKVFMEIAPITQLEATEKELHAALTKYPKVLEKQLNPDISKAYRHNVEFDTHIVNQIIANFFYRQGMFDIGDCFVAETGESECSTRQSFVEMYRILEAMKRRDLEPALNWAVSNSDKLKEARSDLEMKLHSLHFLEIARGKNSKEAIDYARKHIATFADSCLPEIQKLMCSLLWNRKLDKSPYSEFLSPALWNNAVKELTRQYCNLLGESSESPLSITVTAGTQALPVLLKYMNVVMANKKLDWQTMEQLPVDAQLSEEFQFHSVFVCPVSKEQSSDDNPPMMMSCGHVLCKQTINKMSKNGSKSSFKCPYCPTDVDISRCRQLHF | binds |
| Transducin/WD40 domain-containing protein (At5g08560) (protein, UniProt Q9FNN2 1-589) MGVVEDTEPPLKRAKRLADEPNGFSANSSVRGSSVNSNSLGDLMARPLPSQGDDETIGSKGVIRKSEFVRIITRALYSLGYDKTGAMLEEESGISLHNSTIKLFLQQVKDGKWDQSVKTLHRIGFPDEKAVKAASFLLLEQKFLEFLKVEKIADALRTLRNEMAPLRINTKRVHELASSLISPSSFISHTTSTPGKESVNSRSKVLEELQTLLPASVIIPEKRLECLVENSLHIQRDSCVFHNTLDSDLSLYSDHQCGKHQIPSQTAQILESHTDEVWFLQFSHNGKYLASSSKDQTAIIWEISADGHISLKHTLVGHHKPVIAILWSPDDRQVLTCGAEEVIRRWDVDSGDCVHMYEKGGISPISCGWYPDGQGIIAGMTDRSICMWDLDGREKECWKGQRTQKVSDIAMTDDGKWLVSVCKDSVISLFDREATVERLIEEEDMITSFSLSNDNKYILVNLLNQEIRLWNIEGDPKIVSRYKGHKRSRFIIRSCFGGYKQAFIASGSEDSQVYIWHRSTGKLIVELPGHAGAVNCVSWSPTNLHMLASASDDGTIRIWGLDRINQQNQKKKLVQGSSSNGVIHRCNGN | binds |
| LisH/CRA/RING-U-box domain-containing protein (At3g55070) (protein, UniProt Q9M2V9 1-418) MEIDSATNGNSDTVMTESAATITPSPVVVSSSRSNQFTESLKLEHQLLRVPFEHYKKTIRTNHRSFEKEVSTIVNGVGELADSDWSKDDTVSRLTCLVTRLQGLKRKLEEGSNVENLQAQRCRARIDHLDSVDVENITEWNNTKLKRILVDYMLRMSYFETATKLSESSNIMDLVDIDIFREAKKVIDALKNREVASALTWCADNKTRLKKSKSKFEFQLRLQEFIELVRVDTAESYKKAIQYARKHLASWGTTHMKELQHVLATLAFKSTTECSKYKVLFELRQWDVLVDQFKQEFCKLYGMTMEPLLNIYLQAGLSALKTPYGLEEGCTKEDPLSQENFRKLALPLPFSKQHHSKLVCYISKELMDTENPPQVLPNGYVYSTKALKEMAEKNGGKITCPRTGLVCNYTELVKAYIS | binds |

More lines, now with the values ahead:

| binding | Molecule |
| --- | --- |
| binds | Transducin/WD40 domain-containing protein (At5g43920) (protein, UniProt Q9FND4 1-523) MENGLWEVLGSKGLLKKHEFIRILVQCLYSLGFKNSASCLEFESKILYKTADSEFLEKQVLSGNWDSCVQVLDRIFDNSMDDTRNTALYLVFKQCLLEYLKRGDVSLALNVLRKQAPLLRMGKEKIHRLACDIVYSKEMESGEVDNCLVLDLRRKLLVELEKLIPLPIVIPERRLEHLVETAVMDQIDTCMYHNSCDAVSLYKDHCCGRDQIPSETVQILVAHKNEVWFVQFSNSGKYLATASSDCTAIIWKVLDDNKVELKHTLESHQNPVSFVSWSPDDTKLLTCGNAEVLKLWDVDTGVLRHTFGNNNTGFTVSSCAWFPDSTRLVCGSSDPERGIVMWDTDGNEIKAWRGTRIPKVVDLAVTPDGESMITVFSDKEIRILNLETKVERVISEEQPITSLSISGDGKFFIVNLSCQEIHLWDLAGEWKQPLKFSGHRQSKYVIRSCFGGLDSSFIASGSEDSQVYIWNLKNTKPLEVLSGHSMTVNCVSWNPKNPRMLASASDDQTIRIWGPGKPNKPLN |
| binds | Yippee family protein (At5g53940) (protein, UniProt Q9FN32 1-129) MGRIFTVELEGRSYRCRFCRTHLALPDDLVSRSFHCRRGKAYLFNRSVNISMGPLEERLMLSGMHTVADIFCCCCGQNVGWKYESAHEKAQKYKEGKFVLERGRIVDEIDLSTEVYIDTHGSTSDTEDS |

target: T1, GFP-AtRanBPM (Arabidopsis homologue of RanBPM, At1g35470, N-terminal GFP fusion) (Arabidopsis thaliana); assay: as above; remark: another data set of the same source

| binding | Molecule |
| --- | --- |
| binds | Yippee-like protein (At3g08890) |
| binds | Armadillo-repeat-containing protein (At3g08947) |

These are yes or no findings as the source states them, for the method shown. In cells and extracts the contact can be indirect. A yes stands for co-enrichment or nearness to the bait. Other partners may have been found. Where a sequence is shown, tags or fusion partners need not be part of it.
